The text below walks through data of article doi:10.1101/2020.02.07.938530.

Protein sequences, listed by entry. Tags and fused reporters are not part of them.
UniProt Q9UQE7: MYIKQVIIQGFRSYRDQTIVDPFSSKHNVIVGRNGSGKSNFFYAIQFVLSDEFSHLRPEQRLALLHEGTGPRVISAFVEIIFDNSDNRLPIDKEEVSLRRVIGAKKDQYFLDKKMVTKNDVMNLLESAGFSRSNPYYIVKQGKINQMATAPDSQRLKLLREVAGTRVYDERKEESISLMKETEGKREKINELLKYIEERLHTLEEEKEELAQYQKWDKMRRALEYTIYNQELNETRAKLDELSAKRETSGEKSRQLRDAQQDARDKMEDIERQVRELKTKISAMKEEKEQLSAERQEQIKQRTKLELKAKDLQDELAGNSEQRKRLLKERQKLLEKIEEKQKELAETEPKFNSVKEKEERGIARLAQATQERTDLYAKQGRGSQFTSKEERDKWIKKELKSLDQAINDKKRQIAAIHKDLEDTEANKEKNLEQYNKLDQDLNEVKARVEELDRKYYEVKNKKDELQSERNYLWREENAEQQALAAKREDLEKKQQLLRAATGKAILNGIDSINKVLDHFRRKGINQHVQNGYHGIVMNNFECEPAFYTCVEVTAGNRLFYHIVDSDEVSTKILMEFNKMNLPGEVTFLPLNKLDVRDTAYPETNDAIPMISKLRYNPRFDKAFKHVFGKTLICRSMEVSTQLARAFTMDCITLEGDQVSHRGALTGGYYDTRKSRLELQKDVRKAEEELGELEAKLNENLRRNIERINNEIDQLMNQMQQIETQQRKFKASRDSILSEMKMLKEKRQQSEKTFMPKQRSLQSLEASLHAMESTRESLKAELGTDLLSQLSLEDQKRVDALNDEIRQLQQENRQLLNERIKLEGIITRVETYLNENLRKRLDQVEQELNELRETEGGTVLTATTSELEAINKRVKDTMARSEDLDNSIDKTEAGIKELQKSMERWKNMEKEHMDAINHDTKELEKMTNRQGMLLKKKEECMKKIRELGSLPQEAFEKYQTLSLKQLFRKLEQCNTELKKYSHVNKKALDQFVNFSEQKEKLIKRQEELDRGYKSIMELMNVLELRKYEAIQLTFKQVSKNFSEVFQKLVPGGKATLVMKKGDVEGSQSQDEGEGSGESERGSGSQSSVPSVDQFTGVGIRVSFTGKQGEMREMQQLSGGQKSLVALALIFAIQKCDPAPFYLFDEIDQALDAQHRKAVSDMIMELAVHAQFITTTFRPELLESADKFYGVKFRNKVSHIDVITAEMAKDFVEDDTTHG

One assay addresses 13MYC-Smc3 (UniProt Q9UQE7). As to the kind of experiment: proximity ligation.
For assay [1], the target named is T1, Scc3-K1057C (yeast (budding yeast, Saccharomyces cerevisiae)) (UniProt P40541).
T1 sequence: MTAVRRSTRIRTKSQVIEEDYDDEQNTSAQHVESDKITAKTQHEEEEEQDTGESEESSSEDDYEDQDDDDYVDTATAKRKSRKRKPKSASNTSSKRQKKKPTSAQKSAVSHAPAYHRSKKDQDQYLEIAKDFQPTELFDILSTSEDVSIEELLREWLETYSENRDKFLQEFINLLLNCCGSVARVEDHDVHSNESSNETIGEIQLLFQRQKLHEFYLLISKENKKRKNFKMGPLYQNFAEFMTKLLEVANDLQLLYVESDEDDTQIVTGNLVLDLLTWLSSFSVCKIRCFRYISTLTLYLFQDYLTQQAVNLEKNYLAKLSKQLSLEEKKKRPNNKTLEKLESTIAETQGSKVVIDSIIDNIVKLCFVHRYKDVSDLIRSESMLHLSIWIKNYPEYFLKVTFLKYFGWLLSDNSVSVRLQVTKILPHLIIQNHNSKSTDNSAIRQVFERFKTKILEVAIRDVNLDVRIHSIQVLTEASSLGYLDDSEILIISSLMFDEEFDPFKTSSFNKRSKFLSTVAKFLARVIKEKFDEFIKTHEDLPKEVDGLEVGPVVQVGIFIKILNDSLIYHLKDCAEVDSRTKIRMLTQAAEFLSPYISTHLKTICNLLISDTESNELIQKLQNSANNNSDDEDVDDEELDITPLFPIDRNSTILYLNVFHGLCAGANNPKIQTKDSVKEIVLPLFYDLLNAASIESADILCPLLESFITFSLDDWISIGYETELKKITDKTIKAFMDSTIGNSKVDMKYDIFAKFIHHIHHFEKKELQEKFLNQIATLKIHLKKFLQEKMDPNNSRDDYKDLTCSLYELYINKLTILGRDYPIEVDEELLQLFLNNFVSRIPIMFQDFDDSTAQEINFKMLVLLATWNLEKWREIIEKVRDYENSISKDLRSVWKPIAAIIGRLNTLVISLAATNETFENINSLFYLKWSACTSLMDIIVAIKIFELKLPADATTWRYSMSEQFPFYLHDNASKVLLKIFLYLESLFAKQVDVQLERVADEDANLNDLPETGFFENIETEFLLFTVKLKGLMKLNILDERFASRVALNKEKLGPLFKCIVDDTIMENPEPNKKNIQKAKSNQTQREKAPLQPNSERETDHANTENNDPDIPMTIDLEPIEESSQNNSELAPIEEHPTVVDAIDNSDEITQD
As to the kind of experiment: cross-linking.

The target in assay [2] is T2, GFP-Scc3 (yeast (budding yeast, Saccharomyces cerevisiae)), P40541.
T2 chain: T1 sequence with C1057K
Put plainly: co-IP. Conditions: remark: other sources report otherwise.

Assay [3] has as its target T2, GFP-Scc3 (yeast (budding yeast, …)). Put plainly: co-IP. Conditions: remark: other sources report otherwise.

Residue numbers refer to the chain shown, from its start. In names and notes the source's numbering stands. No constants are given. Whether binding was seen depends on the method and setting. In cells and extracts the contact can be indirect. Some binding calls cover weakened binding; strength is not graded here. For some of these results: Where a sequence is shown, tags or fusion partners need not be part of it.

Regarding 5FLAG-Smc3 (from UniProt Q9UQE7 1-1217), the binding result in the assay with 13MYC-Smc3 is recorded as “binds”.

B1: Scc3-K99C (protein, UniProt P40541 1-1150)
chain: T1 sequence with K99C, C1057K
Take B1: in assay [1], the binding result is reported as “binds”.

B2: 5FLAG-Scc3, P40541 1-1150 (protein)
chain: T1 sequence with C1057K
Regarding B2, the binding result in assay [2] and in assay [3] was “binds” in each case.
